Data source: PubChem BioAssay AID504774 (Drosophila RNAi Screening Center, 2011)
The screen tested about 23,000 reagents; below is an unselected part of those with a known target gene and a result. 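Values are quantile-normalised luminescence on an arbitrary scale; higher means more cells surviving MMS.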 Reagents against one gene are numbered here. Names joined by + are all predicted targets of the reagent. Further read-outs or replicates are left out here.

Aim: 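Fly genes whose loss alters survival after alkylation damage to DNA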 (primary screen)
Cells: Drosophila Kc167 cells
Reagents: long dsRNA against Drosophila genes, about 0.25 µg dsRNA per well
Timing: about 6 days: 3 days knock-down, then 3 days with or without MMS
Conditions: methyl methanesulphonate 0.004% (w/v) for 3 days after knock-down
Detection: 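Viability in wells given MMS, read as ATP luminescence, normalised by quantiles plate by plate and averaged across replicates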
Direction: mean viability with MMS: higher = more surviving cells after MMS

mean viability with MMS | gene | reagent
3.56e6 | CG30384 | 1
3.40e6 | Bicra | 1
3.38e6 | Smg6 | 1
3.65e6 | CG6985 | 1
3.50e6 | sdk | 1
3.77e6 | CG42680 | 1
3.57e6 | alpha-Est2 | 1
3.53e6 | whd | 1
3.63e6 | CG15345 (retired record) | 1
3.53e6 | CG15345 (retired record) | 2
3.56e6 | Fst | 1
3.69e6 | Cyp9h1 | 1
3.55e6 | Nemp | 1
3.63e6 | Rcc1 | 1
3.44e6 | jeb | 1
3.65e6 | jeb | 2
3.55e6 | puml | 1
3.57e6 | CG32259 | 1
3.58e6 | CG13970 | 1
3.58e6 | CG32572 | 1
3.56e6 | CG32572 | 2
3.61e6 | CG13965 | 1
3.50e6 | CG17159 + CG17162 | 1
3.50e6 | CG17159 + CG17162 | 2
3.74e6 | Tom20 | 1
3.70e6 | Membrin | 1
3.35e6 | CG12773 | 1
3.49e6 | dwg | 1
3.81e6 | Sap130 | 1
3.33e6 | CG14418 | 1
3.51e6 | CG14418 | 2
3.78e6 | mEFTu1 | 1
3.65e6 | mas | 1
3.58e6 | Rab9Db + Rab9Fa | 1
3.54e6 | bcn92 | 1
3.39e6 | Nop60B | 1
3.57e6 | CG18659 | 1
3.78e6 | Jon66Cii | 1
3.54e6 | CG32017 | 1
3.77e6 | CG14143 | 1
3.72e6 | CG15375 | 1
3.65e6 | wit | 1
3.31e6 | lin-28 | 1
3.54e6 | eIF4E3 | 1

Individual results from the list.
Entry of CG13965 in “mean viability with MMS”: 3.61e6
Entry for puml in “mean viability with MMS”: 3.55e6
Entry for Nemp in “mean viability with MMS”: 3.55e6
CG42680, mean viability with MMS → 3.77e6
For “mean viability with MMS”, CG15375 has 3.72e6
Tom20, mean viability with MMS = 3.74e6

Further reagents:
mean viability with MMS | gene | reagent
3.41e6 | EndoA | 1
3.60e6 | scaf6 | 1
3.31e6 | scaf6 | 2
3.22e6 | scaf6 | 3
3.71e6 | CG2076 | 1
3.52e6 | CG10581 | 1
3.54e6 | CG32110 | 1
3.30e6 | Eaf | 1
3.65e6 | Eaf | 2
3.59e6 | Eaf | 3
3.46e6 | CG42521 | 1
3.79e6 | sano | 1
3.63e6 | Tg | 1
3.59e6 | CG6044 | 1
3.54e6 | trbl | 1
3.57e6 | CG8353 | 1
3.24e6 | RpL38 | 1
3.52e6 | lqfR | 1
3.23e6 | lqfR | 2
3.52e6 | Lmpt | 1
3.56e6 | Lmpt | 2
3.76e6 | Lmpt | 3
3.58e6 | Lmpt | 4
3.55e6 | Lmpt | 5
3.34e6 | Lmpt | 6
3.19e6 | Lmpt | 7
